# Measurements: PMC2873957
# The chains behind the UniProt entries cited, without tags or fusion partners. Where a name states a change or a piece, a line headed by the entry shows the natural chain unless it says otherwise.
# UniProt Q01860: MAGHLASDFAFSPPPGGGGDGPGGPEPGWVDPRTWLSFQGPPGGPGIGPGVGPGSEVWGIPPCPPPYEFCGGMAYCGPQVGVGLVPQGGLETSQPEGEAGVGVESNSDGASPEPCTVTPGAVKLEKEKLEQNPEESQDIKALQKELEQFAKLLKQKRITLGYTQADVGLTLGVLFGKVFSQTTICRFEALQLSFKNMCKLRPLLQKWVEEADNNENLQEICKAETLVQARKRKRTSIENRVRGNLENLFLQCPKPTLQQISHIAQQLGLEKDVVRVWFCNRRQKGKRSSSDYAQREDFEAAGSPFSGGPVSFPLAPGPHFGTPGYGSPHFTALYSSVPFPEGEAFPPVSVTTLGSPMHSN
# How the values were obtained:
# [1] = molecular target: OCT4 (human (NCCIT embryonal carcinoma cells)) (UniProt Q01860); assay: EMSA supershift; conditions: anti-OCT4 sc-9081, 20-fold unlabelled competitor tested; EMSA: 40 ug NCCIT nuclear extract in 40 ul, 50 nM Cy5 probe, 5 ug poly-dGdC, 1 ug/ul BSA, 1 uM competitor, 6% native PAGE 0.5X TBE; protein in an extract; label: 5' Cy5 on both strands
# [2] = molecular target: OCT4 (human (NCCIT embryonal carcinoma cells)) (UniProt Q01860); assay: biotinylated DNA pull-down, western blot; conditions: 300X scrambled oligo, poly-GdC, pull-down: 20 mM HEPES pH 7.9, 20% glycerol, 100 mM KCl, 0.83 mM EDTA, 1.66 mM DTT, 4 C, 8 h, protein in an extract
Sequence,binding result [1],also measured
ATGCGCATATGTAAAAAGCCTTTTTTCCGGC (double strand) [GADD45G_L probe (OCT4 motif at 9-15)],binds,
GGTTTTTTTTTTCCCATCCCCCACCCCCAGCAGTGCATTATTATGCAGTCACTGCTTTTGTTCCGAGTTCTGAGCCTGCTTCTATTTGCATCGTAACCTCTTTGGGGGCCTTTG (double strand) [USP44 conserved promoter fragment],,binding result ([2]; label: biotin (5' tag)): binds
GGTTTTTTTTTTCTCTCCGACCTGTCGTCACCGGATTTCGCCCCGCCTTCGTTTCTTGGCCCATGCTGTATTCCTTAAATGGACAGATACCATATCGTTGTACCGGCTCTTTTG (double strand) [USP44 scrambled],,binding result ([2]; label: biotin): binds more weakly
TCTGCAGCTACTTTTGCATTACAATGGCCTTGGTGAG (double strand) [NANOG promoter OCT4-SOX2 probe],binds,
TTACTTAAATGCGCATATGTAAAAAGCCTTT (double strand) [GADD45G_R probe (OCT4 motif at 17-23)],binds,

# For at least one entry, the source does not settle the construct or the ends of the probe. Results from cells or extracts need not show a direct contact. For some assays here: Weaker means in comparison with the reference protein, sequence or condition of that experiment.
